Laboratory results reported in the supplement of paper PMC12067093, “Discovery and optimisation of a covalent ligand for TRIM25 and its application to targeted protein ubiquitination” (Chemical Science, 2025).
The other results are listed elsewhere or left out.

By UniProt entry, the sequences of proteins in these tests, tags left out. Where a name states a change or a piece, a line headed by the entry shows the natural chain unless it says otherwise.
UniProt P18887, whole entry, looked up: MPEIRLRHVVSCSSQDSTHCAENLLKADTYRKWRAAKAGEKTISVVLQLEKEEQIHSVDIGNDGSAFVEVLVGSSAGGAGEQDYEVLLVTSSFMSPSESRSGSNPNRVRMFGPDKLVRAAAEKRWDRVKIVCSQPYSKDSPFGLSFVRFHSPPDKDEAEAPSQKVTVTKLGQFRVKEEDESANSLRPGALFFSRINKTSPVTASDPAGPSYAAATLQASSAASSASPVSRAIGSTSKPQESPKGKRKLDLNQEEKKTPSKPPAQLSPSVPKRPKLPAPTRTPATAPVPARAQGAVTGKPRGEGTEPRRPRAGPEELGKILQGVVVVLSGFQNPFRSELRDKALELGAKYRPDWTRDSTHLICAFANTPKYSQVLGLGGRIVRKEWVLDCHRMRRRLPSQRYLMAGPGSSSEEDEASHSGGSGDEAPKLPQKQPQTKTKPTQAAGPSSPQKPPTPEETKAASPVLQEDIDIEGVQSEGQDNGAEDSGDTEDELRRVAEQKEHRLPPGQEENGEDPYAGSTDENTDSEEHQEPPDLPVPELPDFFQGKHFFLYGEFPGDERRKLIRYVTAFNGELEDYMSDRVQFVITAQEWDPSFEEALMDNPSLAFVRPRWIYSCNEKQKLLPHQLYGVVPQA
UniProt Q9H0D6: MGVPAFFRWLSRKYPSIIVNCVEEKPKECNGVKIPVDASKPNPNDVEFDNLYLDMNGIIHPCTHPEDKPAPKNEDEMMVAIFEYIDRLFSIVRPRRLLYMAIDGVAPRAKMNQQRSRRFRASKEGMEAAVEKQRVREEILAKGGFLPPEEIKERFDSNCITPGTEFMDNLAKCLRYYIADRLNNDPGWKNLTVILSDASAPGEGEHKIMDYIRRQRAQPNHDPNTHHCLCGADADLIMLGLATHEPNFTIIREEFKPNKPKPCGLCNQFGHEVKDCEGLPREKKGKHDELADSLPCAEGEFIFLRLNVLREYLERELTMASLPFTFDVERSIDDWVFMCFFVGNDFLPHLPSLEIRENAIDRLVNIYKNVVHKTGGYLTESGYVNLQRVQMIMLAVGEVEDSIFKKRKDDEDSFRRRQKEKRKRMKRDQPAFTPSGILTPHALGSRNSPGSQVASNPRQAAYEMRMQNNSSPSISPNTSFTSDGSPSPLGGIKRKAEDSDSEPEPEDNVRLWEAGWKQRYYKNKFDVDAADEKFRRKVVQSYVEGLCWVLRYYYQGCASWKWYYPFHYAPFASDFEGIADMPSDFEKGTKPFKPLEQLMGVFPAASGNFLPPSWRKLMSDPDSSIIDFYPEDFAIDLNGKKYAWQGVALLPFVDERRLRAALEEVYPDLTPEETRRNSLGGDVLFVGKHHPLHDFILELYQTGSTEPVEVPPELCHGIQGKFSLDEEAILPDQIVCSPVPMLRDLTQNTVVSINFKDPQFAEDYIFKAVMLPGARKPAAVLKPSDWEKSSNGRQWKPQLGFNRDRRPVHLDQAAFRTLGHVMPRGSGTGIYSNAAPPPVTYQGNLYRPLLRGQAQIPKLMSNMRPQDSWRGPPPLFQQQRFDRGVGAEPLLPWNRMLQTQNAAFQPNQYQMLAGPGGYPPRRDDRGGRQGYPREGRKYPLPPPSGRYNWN
UniProt Q96H79: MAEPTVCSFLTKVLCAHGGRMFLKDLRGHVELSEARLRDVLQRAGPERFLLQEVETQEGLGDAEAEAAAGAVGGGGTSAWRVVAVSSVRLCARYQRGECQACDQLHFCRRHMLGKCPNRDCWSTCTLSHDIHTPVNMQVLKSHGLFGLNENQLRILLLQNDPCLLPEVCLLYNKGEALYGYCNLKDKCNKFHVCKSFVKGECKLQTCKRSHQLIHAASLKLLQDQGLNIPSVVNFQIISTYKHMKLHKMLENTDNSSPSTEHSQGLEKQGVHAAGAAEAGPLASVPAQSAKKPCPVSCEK
UniProt P13010: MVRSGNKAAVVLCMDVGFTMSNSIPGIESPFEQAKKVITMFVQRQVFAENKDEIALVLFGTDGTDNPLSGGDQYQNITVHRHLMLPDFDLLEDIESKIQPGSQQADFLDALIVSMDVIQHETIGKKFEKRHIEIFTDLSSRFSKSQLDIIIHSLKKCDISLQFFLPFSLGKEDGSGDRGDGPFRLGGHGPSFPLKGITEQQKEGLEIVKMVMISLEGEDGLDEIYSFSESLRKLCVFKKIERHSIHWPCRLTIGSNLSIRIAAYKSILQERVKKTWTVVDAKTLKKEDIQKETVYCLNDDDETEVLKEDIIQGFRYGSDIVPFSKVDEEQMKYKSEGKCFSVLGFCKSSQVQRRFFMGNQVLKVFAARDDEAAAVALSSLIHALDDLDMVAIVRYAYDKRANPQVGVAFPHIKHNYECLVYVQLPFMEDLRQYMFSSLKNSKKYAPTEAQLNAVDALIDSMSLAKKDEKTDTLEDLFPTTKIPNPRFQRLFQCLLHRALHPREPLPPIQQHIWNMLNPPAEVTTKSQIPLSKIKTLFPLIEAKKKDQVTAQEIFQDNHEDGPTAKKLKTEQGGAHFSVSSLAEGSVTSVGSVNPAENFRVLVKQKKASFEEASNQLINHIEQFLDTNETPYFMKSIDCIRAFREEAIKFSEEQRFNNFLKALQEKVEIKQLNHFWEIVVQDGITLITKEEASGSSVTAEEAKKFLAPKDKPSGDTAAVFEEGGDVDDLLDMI
UniProt Q8IWR0: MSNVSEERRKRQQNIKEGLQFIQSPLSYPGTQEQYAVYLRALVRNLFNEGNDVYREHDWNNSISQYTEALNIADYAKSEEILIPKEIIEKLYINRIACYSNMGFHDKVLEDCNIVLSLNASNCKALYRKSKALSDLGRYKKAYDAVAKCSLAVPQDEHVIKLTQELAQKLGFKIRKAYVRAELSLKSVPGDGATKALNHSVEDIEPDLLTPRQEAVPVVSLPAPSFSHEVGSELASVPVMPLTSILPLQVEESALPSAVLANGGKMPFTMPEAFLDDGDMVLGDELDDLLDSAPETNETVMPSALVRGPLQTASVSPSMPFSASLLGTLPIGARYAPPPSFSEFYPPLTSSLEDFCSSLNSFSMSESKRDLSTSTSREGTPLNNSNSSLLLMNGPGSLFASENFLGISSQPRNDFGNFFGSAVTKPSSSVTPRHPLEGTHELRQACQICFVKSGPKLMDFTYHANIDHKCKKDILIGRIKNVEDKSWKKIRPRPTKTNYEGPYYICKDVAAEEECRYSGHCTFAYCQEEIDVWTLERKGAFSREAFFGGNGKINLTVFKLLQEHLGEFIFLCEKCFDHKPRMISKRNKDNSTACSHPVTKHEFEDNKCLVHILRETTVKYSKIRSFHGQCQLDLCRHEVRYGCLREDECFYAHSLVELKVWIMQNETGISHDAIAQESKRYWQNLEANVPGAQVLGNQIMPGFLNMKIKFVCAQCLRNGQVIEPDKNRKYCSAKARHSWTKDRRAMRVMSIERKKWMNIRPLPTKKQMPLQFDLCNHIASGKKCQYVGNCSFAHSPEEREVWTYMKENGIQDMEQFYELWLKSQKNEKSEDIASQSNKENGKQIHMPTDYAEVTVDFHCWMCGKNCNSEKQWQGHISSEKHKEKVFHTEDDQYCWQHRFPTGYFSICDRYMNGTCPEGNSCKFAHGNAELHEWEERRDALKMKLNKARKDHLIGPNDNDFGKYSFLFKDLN
UniProt Q6PJT7: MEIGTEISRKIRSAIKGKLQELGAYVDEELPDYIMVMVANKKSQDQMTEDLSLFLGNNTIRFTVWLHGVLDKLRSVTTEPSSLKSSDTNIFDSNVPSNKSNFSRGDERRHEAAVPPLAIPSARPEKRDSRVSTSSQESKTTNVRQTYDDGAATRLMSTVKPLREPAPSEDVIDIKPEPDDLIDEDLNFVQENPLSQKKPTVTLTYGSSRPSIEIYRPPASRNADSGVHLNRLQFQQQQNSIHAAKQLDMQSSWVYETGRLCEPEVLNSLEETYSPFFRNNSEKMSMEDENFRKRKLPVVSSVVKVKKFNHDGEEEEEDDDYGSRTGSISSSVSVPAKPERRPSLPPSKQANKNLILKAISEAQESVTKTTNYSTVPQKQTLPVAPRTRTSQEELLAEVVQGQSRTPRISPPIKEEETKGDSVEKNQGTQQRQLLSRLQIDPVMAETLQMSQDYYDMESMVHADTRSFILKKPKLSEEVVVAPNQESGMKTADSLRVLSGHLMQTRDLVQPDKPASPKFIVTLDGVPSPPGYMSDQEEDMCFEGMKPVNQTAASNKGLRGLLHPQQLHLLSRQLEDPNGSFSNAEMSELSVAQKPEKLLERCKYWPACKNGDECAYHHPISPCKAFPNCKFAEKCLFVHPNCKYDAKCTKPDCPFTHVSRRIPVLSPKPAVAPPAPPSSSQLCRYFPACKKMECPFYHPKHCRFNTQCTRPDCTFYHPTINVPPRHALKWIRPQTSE
UniProt Q7Z2W4: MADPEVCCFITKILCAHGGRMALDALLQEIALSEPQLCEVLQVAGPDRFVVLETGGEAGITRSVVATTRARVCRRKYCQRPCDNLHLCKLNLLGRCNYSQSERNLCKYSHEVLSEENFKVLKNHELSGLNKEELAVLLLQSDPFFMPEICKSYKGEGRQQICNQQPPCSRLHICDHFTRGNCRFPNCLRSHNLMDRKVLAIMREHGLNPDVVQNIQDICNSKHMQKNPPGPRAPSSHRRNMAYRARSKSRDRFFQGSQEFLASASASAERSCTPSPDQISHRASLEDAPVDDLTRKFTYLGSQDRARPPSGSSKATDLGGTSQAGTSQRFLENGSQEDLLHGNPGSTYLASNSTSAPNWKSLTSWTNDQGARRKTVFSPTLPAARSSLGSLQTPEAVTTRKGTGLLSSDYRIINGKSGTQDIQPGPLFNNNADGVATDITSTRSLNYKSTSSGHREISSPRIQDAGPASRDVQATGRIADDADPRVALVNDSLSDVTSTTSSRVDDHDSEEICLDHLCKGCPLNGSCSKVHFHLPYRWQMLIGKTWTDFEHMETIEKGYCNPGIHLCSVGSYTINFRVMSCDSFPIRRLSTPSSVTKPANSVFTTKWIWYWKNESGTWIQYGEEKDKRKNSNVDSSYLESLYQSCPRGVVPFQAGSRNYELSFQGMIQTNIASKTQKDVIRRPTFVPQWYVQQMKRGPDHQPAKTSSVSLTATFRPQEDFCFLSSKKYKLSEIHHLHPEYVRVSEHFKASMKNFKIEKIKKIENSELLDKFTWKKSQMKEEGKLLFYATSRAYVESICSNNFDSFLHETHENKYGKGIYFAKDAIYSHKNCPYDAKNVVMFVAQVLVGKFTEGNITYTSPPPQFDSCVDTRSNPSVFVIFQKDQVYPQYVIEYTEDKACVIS
UniProt Q9HAV4: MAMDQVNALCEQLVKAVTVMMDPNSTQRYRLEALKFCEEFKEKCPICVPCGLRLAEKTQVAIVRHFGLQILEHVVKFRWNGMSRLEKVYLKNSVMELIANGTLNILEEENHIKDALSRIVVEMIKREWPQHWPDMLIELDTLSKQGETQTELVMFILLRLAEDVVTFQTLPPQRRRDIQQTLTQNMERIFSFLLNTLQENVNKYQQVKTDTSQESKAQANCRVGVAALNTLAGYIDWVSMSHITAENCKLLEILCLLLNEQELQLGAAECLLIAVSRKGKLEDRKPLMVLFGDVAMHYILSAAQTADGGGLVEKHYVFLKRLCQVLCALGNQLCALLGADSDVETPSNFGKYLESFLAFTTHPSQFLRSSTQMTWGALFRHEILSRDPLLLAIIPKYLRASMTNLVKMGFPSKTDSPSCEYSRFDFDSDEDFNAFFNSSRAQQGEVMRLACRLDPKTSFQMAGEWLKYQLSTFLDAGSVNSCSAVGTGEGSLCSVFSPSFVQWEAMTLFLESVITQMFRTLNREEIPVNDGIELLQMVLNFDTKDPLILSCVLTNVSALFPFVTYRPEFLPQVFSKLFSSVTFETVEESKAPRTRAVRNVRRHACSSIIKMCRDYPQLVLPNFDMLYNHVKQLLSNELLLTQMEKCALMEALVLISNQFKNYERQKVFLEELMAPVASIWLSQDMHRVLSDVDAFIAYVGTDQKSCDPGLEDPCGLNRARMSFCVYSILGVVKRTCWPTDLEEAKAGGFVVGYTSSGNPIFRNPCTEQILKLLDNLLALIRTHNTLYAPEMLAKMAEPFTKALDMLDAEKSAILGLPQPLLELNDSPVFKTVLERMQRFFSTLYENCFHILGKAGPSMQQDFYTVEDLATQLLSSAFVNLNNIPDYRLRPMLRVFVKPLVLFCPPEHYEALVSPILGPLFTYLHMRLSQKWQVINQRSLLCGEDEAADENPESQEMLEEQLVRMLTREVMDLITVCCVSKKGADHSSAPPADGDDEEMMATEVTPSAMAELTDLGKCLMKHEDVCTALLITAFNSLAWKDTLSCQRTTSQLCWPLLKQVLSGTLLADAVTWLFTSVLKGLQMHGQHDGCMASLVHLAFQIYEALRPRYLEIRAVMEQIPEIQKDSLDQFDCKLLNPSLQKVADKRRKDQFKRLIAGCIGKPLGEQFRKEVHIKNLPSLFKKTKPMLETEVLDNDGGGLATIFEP

Each target was assayed with Cc1cc(ccc1-c1ccccc1)C(=O)N1CCCN(CC1)C(=O)CCl [compound 10] (assay: probe-labelled cysteine peptide fold change vs DMSO (competition) (log2 fold change); higher = less target engagement (more negative = stronger competition)). Conditions: 10 µM; THP-1; incubation time: 4 h.
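Also: competitive profiling in live THP-1 cells: cysteine peptides tagged with an iodoacetamide desthiobiotin (IA-DTB) probe, intensity after compound treatment relative to DMSO-treated cells.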

Compared with “XRCC1_P18887_362_DSTHLICAFANTPK (UniProt P18887)”, “ZFAND1_Q8TCF1_10_AELDIGQHCQVEHCR (UniProt Q8TCF1)” is higher in “probe-labelled cysteine peptide fold change” value: -0.168 for the first, 0.314 for the second.

First: XRN2_Q9H0D6_276_DCEGLPR (UniProt Q9H0D6)
Second: ZC3H12D_A2A288_64_GSCGVPDSAQR (UniProt A2A288)
The “probe-labelled cysteine peptide fold change” value of the first is higher: 0.0921 for the first, -0.323 for the second.

Going from “ZC3H7B_Q9UGR2_700_FVCGQCWR (UniProt Q9UGR2)” to “ZC3HAV1L_Q96H79_99_GECQACDQLHFCR (UniProt Q96H79)”, the “probe-labelled cysteine peptide fold change” value rises from 0.0673 to 0.0733.

Compared with “ZBTB44_Q8NCP5_31_NDGHFCDITIR (UniProt Q8NCP5)”, “XRCC5_P13010_296_ETVYCLNDDDETEVLKEDIIQGFR (UniProt P13010)” is lower in “probe-labelled cysteine peptide fold change” value: 0.224 for the first, -0.272 for the second.

First: YIPF4_Q9BSR8_94_CVLMPMPSLGFNR (UniProt Q9BSR8)
Second: ZC3HAV1L_Q96H79_99+102_GECQACDQLHFCR (UniProt Q96H79)
The “probe-labelled cysteine peptide fold change” value of the first is higher: 0.0423 for the first, -0.135 for the second.

Compared with “YDJC_A8MPS7_18_LVVTADDFGYCPR (UniProt A8MPS7)”, “XRN1_Q8IZH2_657_ALYFCGFPTLK (UniProt Q8IZH2)” is lower in “probe-labelled cysteine peptide fold change” value: 0.0274 for the first, -0.16 for the second.

First: ZC3H7A_Q8IWR0_149_CSLAVPQDEHVIK (UniProt Q8IWR0)
Second: YY1AP1_Q9H869_734_QCQEGLSENSAYR (UniProt Q9H869)
The “probe-labelled cysteine peptide fold change” value of the first is higher: 0.0131 for the first, -0.0153 for the second.

Going from “ZC3H14_Q6PJT7_628_AFPNCK (UniProt Q6PJT7)” to “ZBED4_O75132_156_DLSTSCLMR (UniProt O75132)”, the “probe-labelled cysteine peptide fold change” value falls from 0.0996 to -0.152.

First: ZFC3H1_O60293_1141_TMEVKPCPFRPYHSPLLVFK (UniProt O60293)
Second: XRCC5_P13010_493_LFQCLLHR (UniProt P13010)
The “probe-labelled cysteine peptide fold change” value of the first is lower: -0.204 for the first, -0.18 for the second.

Going from “ZC3HAV1_Q7Z2W4_174_LHICDHFTR (UniProt Q7Z2W4)” to “ZC3H7A_Q8IWR0_921_YMNGTCPEGNSCK (UniProt Q8IWR0)”, the “probe-labelled cysteine peptide fold change” value rises from -0.0265 to 0.00658.

First: ZC3H12A_Q5D1E8_374_RPSPSSQSSSLLTESEQCSLDGK (UniProt Q5D1E8)
Second: ZC3H14_Q6PJT7_607_YWPACK (UniProt Q6PJT7)
The “probe-labelled cysteine peptide fold change” value of the first is lower: -0.349 for the first, 0.102 for the second.

Going from “XRN2_Q9H0D6_21_KYPSIIVNCVEEK (UniProt Q9H0D6)” to “YJU2_Q9BW85_83_CLAEITFK (UniProt Q9BW85)”, the “probe-labelled cysteine peptide fold change” value rises from -0.0843 to -0.0359.

Going from “YARS_P54577_501_ISEECIAQWK (UniProt P54577)” to “ZC3H11A_O75152_80_LNCAFHHNR (UniProt O75152)”, the “probe-labelled cysteine peptide fold change” value rises from -0.244 to 0.0566.

Going from “XRCC1_P18887_389_EWVLDCHR (UniProt P18887)” to “ZC3HAV1L_Q96H79_15_VLCAHGGR (UniProt Q96H79)”, the “probe-labelled cysteine peptide fold change” value rises from -0.0723 to 0.416.

First: ZC3HAV1_Q7Z2W4_567_GYCNPGIHLCSVGSYTINFR (UniProt Q7Z2W4)
Second: ZC3HAV1_Q7Z2W4_96_CNYSQSER (UniProt Q7Z2W4)
The “probe-labelled cysteine peptide fold change” value of the first is higher: 0.175 for the first, 0.0615 for the second.

First: YTHDF2_Q9Y5A9_433_YNIWCSTEHGNK (UniProt Q9Y5A9)
Second: XPO1_O14980_99_NQCEGIK (UniProt O14980)
The “probe-labelled cysteine peptide fold change” value of the first is higher: 0.0838 for the first, -0.132 for the second.

Compared with “XPO6_Q96QU8_22_ALESLMTEFFHDCTTNER (UniProt Q96QU8)”, “XRCC5_P13010_418_HNYECLVYVQLPFMEDLR (UniProt P13010)” is higher in “probe-labelled cysteine peptide fold change” value: -0.187 for the first, 0.121 for the second.

Compared with “ZC3H7A_Q8IWR0_775_QMPLQFDLCNHIASGKK (UniProt Q8IWR0)”, “ZCCHC3_Q9NUD5_356_CGEEGHLSPYCR (UniProt Q9NUD5)” is higher in “probe-labelled cysteine peptide fold change” value: -0.229 for the first, 0.312 for the second.

First: XPOT_O43592_900_QTFDLADAQTVLALSECAVTLK (UniProt O43592)
Second: XRN2_Q9H0D6_266_PCGLCNQFGHEVK (UniProt Q9H0D6)
The “probe-labelled cysteine peptide fold change” value of the first is higher: 0.288 for the first, 0.0877 for the second.

Going from “YES1_P07947_42_YRPENTPEPVSTSVSHYGAEPTTVSPCPSSSAK (UniProt P07947)” to XPO5_Q9HAV4_221_AQANCR (UniProt Q9HAV4), the “probe-labelled cysteine peptide fold change” value rises from -0.345 to 0.071.
